{"source": "PubChem BioAssay AID602196 (INSERM, 2012)", "purpose": "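Modifiers of cisplatin sensitivity in A549 cells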", "cells": "human A549 lung cancer cells", "reagent": "siRNA pair against human genes", "duration": "48 h transfection before cisplatin; time from cisplatin to read-out not stated", "conditions": "cisplatin at a dose killing half of control-siRNA cells; exact dose and duration not given", "measured": "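Cisplatin cell death as a shift from the 50% death seen with control siRNA; siRNAs toxic or growth-blocking alone scored 0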", "scale": "two-siRNA summed score (-2 to +2): higher = both siRNAs protect from cisplatin killing; -2 means both sensitise; mean protection from cisplatin (shift in death): higher = protection from cisplatin killing", "rule for the call": "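Each siRNA scores 0 if harmful alone by LDH or WST-1, otherwise +1 if it reduces and -1 if it increases cisplatin killing; a gene is active when both siRNAs agree (sum +2 or -2)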", "calls": "active = both siRNAs shift cisplatin killing the same way; inactive = no consistent shift, or siRNA harmful alone", "note": "Shown is one part, drawn at random, of about 23,000 deposited reagents. 455 of them (2%) were called active. 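Active includes both protection and sensitisation; some change values fall well beyond the stated -50 to +50 range.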 A number with no mark means an inactive call. Not all columns of the deposit are shown. Not given: the amount of reagent."}
{"target": "EIF3KP1", "two-siRNA summed score (-2 to +2)": 0, "mean protection from cisplatin (shift in death) (%)": 3.9}
{"target": "PHKA1", "two-siRNA summed score (-2 to +2)": -1, "mean protection from cisplatin (shift in death) (%)": -5.9}
{"target": "USP48", "two-siRNA summed score (-2 to +2)": -1, "mean protection from cisplatin (shift in death) (%)": 5.3}
{"target": "LOC344875", "two-siRNA summed score (-2 to +2)": 0, "mean protection from cisplatin (shift in death) (%)": 12.2}
{"target": "POLR3G", "two-siRNA summed score (-2 to +2)": "2 (active)", "mean protection from cisplatin (shift in death) (%)": 19.3}
{"target": "GPKOW", "two-siRNA summed score (-2 to +2)": 0, "mean protection from cisplatin (shift in death) (%)": 8.7}
{"target": "MUC2", "two-siRNA summed score (-2 to +2)": 0, "mean protection from cisplatin (shift in death) (%)": 4.2}
{"target": "ERCC6L2-AS1", "two-siRNA summed score (-2 to +2)": 0, "mean protection from cisplatin (shift in death) (%)": 6.7}
{"target": "LOC391714", "two-siRNA summed score (-2 to +2)": -1, "mean protection from cisplatin (shift in death) (%)": -2.1}
{"target": "TSPY1", "two-siRNA summed score (-2 to +2)": 0, "mean protection from cisplatin (shift in death) (%)": 1.7}
{"target": "LOC441534", "two-siRNA summed score (-2 to +2)": -1, "mean protection from cisplatin (shift in death) (%)": -18.6}
{"target": "PFKFB4", "two-siRNA summed score (-2 to +2)": 0, "mean protection from cisplatin (shift in death) (%)": 6.2}
{"target": "SH3BGRL3", "two-siRNA summed score (-2 to +2)": 0, "mean protection from cisplatin (shift in death) (%)": -4.3}
{"target": "GFRA3", "two-siRNA summed score (-2 to +2)": 1, "mean protection from cisplatin (shift in death) (%)": 11.1}
{"target": "LOC401583", "two-siRNA summed score (-2 to +2)": 0, "mean protection from cisplatin (shift in death) (%)": 11.1}
{"target": "CYTH1", "two-siRNA summed score (-2 to +2)": 0, "mean protection from cisplatin (shift in death) (%)": 1.6}
{"target": "CCL16", "two-siRNA summed score (-2 to +2)": 0, "mean protection from cisplatin (shift in death) (%)": 9.3}
{"target": "RCOR3", "two-siRNA summed score (-2 to +2)": 0, "mean protection from cisplatin (shift in death) (%)": 6.4}
{"target": "FAM156A", "two-siRNA summed score (-2 to +2)": 0, "mean protection from cisplatin (shift in death) (%)": 1.3}
{"target": "CRYAB", "two-siRNA summed score (-2 to +2)": 1, "mean protection from cisplatin (shift in death) (%)": 8.9}
{"target": "AJUBA", "two-siRNA summed score (-2 to +2)": 1, "mean protection from cisplatin (shift in death) (%)": 12.3}
{"target": "CFB", "two-siRNA summed score (-2 to +2)": 0, "mean protection from cisplatin (shift in death) (%)": 1.1}
{"target": "ZNF419", "two-siRNA summed score (-2 to +2)": 0, "mean protection from cisplatin (shift in death) (%)": -7.5}
{"target": "LOC130865", "two-siRNA summed score (-2 to +2)": "2 (active)", "mean protection from cisplatin (shift in death) (%)": 16.6}
{"target": "LOC440009", "two-siRNA summed score (-2 to +2)": 0, "mean protection from cisplatin (shift in death) (%)": -1.3}
{"target": "LOC440039", "two-siRNA summed score (-2 to +2)": -1, "mean protection from cisplatin (shift in death) (%)": -6.9}
{"target": "HTR5A", "two-siRNA summed score (-2 to +2)": 1, "mean protection from cisplatin (shift in death) (%)": 10.4}
{"target": "TAF9B", "two-siRNA summed score (-2 to +2)": 0, "mean protection from cisplatin (shift in death) (%)": 8.9}
{"target": "LINC00885", "two-siRNA summed score (-2 to +2)": 1, "mean protection from cisplatin (shift in death) (%)": 15.5}
{"target": "LOC401058", "two-siRNA summed score (-2 to +2)": 0, "mean protection from cisplatin (shift in death) (%)": 0.3}
{"target": "GH2", "two-siRNA summed score (-2 to +2)": 0, "mean protection from cisplatin (shift in death) (%)": -3}

Only “two-siRNA summed score (-2 to +2)” (3 entries from above):
LOC440009 = 0
LOC440039 = -1
HTR5A = 1
